For 1 molecule, binding results are on record in PMC6199344.

Protein sequences, listed by entry. Tags and fused reporters are not part of them.
UniProt Q13148: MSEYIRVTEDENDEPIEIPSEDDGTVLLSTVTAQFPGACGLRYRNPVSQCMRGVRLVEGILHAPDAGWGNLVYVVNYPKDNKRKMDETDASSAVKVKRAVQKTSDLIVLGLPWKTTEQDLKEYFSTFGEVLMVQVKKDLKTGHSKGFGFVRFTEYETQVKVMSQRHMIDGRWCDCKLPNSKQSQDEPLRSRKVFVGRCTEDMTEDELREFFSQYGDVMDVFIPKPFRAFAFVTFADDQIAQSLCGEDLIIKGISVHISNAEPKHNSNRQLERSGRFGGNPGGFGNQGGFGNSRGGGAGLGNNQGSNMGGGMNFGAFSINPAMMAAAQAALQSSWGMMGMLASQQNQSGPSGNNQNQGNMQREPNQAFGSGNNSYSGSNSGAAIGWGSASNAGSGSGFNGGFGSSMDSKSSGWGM

Results are given in words; binding and its absence hold for the method and conditions named. In cells and extracts the contact can be indirect.

The assay deals with TAR DNA-binding protein 43 (human (endogenous in HEK293)) (UniProt Q13148). As to the kind of experiment: co-IP; endogenous proteins, nuclear extract of HEK293 TetOn-GFP cells without doxycycline; anti-TDP-43 mAb 5028 or mouse IgG control on Dynabeads Protein G, 4 °C overnight, Pierce IP lysis buffer; immunoblot for ELL, ELL2, TDP-43. Background: In western blotting, separated proteins are transferred to a membrane and probed.

B1: ELL (protein, UniProt P55199 1-621)
chain: MAALKEDRSYGLSCGRVSDGSKVSVFHVKLTDSALRAFESYRARQDSVSLRPSIRFQGSQGHISIPQPDCPAEARTFSFYLSNIGRDNPQGSFDCIQQYVSSHGEVHLDCLGSIQDKITVCATDDSYQKARQSMAQAEEETRSRSAIVIKAGGRYLGKKVQFRKPAPGATDAVPSRKRATPINLASAIRKSGASAVSGGSGVSQRPFRDRVLHLLALRPYRKAELLLRLQKDGLTQADKDALDGLLQQVANMSAKDGTCTLQDCMYKDVQKDWPGYSEGDQQLLKRVLVRKLCQPQSTGSLLGDPAASSPPGERGRSASPPQKRLQPPDFIDPLANKKPRISHFTQRAQPAVNGKLGVPNGREALLPTPGPPASTDTLSSSTHLPPRLEPPRAHDPLADVSNDLGHSGRDCEHGEAAAPAPTVRLGLPLLTDCAQPSRPHGSPSRSKPKKKSKKHKDKERAAEDKPRAQLPDCAPATHATPGAPADTPGLNGTCSVSSVPTSTSETPDYLLKYAAISSSEQRQSYKNDFNAEYSEYRDLHARIERITRRFTQLDAQLRQLSQGSEEYETTRGQILQEYRKIKKTNTNYSQEKHRCEYLHSKLAHIKRLIAEYDQRQLQAWP
Take B1: the binding entry is on record as “no binding”.
